Test results as given in article doi:10.1101/251603.
These are yes or no findings as the source states them, for the method shown. Binding seen in cells or lysates may run through a third protein. Some results given as binding are weak or reduced against the parent protein; the word gives no strength. For some assays here: Tags and fused reporters may be left off the sequences shown.

B1: native ELP1 (protein, UniProt Q9FNA4 1-1319)
chain: MKNLKLFSEVPQNIQLHSTEEVVQFAAYDIDQSRLFFASSANFVYALQLSSFQNESAGAKSAMPVEVCSIDIEPGDFITAFDYLAEKESLLIGTSHGLLLVHNVESDVTELVGNIEGGVKCISPNPTGDLLGLITGLGQLLVMTYDWALMYEKALGEVPEGGYVRETNDLSVNCGGISISWRGDGKYFATMGEVYESGCMSKKIKIWESDSGALQSSSETKEFTQGILEWMPSGAKIAAVYKRKSDDSSPSIAFFERNGLERSSFRIGEPEDATESCENLKWNSASDLLAGVVSCKTYDAIRVWFFSNNHWYLKQEIRYPREAGVTVMWDPTKPLQLICWTLSGQVSVRHFMWVTAVMEDSTAFVIDNSKILVTPLSLSLMPPPMYLFSLSFSSAVRDIAYYSRNSKNCLAVFLSDGNLSFVEFPAPNTWEDLEGKDFSVEISDCKTALGSFVHLLWLDVHSLLCVSAYGSSHNKCLSSGGYDTELHGSYLQEVEVVCHEDHVPDQVTCSGFKASITFQTLLESPVLALAWNPSKRDSAFVEFEGGKVLGYASRSEIMETRSSDDSVCFPSTCPWVRVAQVDASGVHKPLICGLDDMGRLSINGKNLCNNCSSFSFYSELANEVVTHLIILTKQDFLFIVDTKDVLNGDVALGNVFFVIDGRRRDEENMSYVNIWERGAKVIGVLNGDEAAVILQTMRGNLECIYPRKLVLSSITNALAQQRFKDAFNLVRRHRIDFNVIVDLYGWQAFLQSAVAFVEQVNNLNHVTEFVCAMKNEDVTETLYKKFSFSKKGDEVFRVKDSCSNKVSSVLQAIRKALEEHIPESPSRELCILTTLARSDPPAIEESLLRIKSVREMELLNSSDDIRKKSCPSAEEALKHLLWLLDSEAVFEAALGLYDLNLAAIVALNSQRDPKEFLPYLQELEKMPESLMHFKIDIKLQRFDSALRNIVSAGVGYFPDCMNLIKKNPQLFPLGLLLITDPEKKLVVLEAWADHLIDEKRFEDAATTYLCCCKLEKASKAYRECGDWSGVLRVGALMKLGKDEILKLAYELCEEVNALGKPAEAAKIALEYCSDISGGISLLINAREWEEALRVAFLHTADDRISVVKSSALECASGLVSEFKESIEKVGKYLTRYLAVRQRRLLLAAKLKSEERSVVDLDDDTASEASSNLSGMSAYTLGTRRGSAASVSSSNATSRARDLRRQRKSGKIRAGSAGEEMALVDHLKGMRMTDGGKRELKSLLICLVTLGEMESAQKLQQTAENFQVSQVAAVELAHDTVSSESVDEEVYCFERYAQKTRSTARDSDAFSWMLKVFISP

Assays:
[1] = target: cLUC-SPT4-2 (Arabidopsis thaliana) (UniProt Q94C60); assay: split reporter
[2] = target: T1, SPT4-2-GFP (Arabidopsis thaliana) (UniProt Q94C60); assay: co-IP
T1 sequence: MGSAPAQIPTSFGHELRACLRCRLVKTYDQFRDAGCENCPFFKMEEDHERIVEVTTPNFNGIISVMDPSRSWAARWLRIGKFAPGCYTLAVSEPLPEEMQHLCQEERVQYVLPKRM

Molecule	binding [1]	binding [2]
ELP1-nLUC (from UniProt Q9FNA4 1-1319)	binds	–
B1	–	binds
